{"source": "PubChem BioAssay AID504791 (Drosophila RNAi Screening Center, 2011)", "assay": "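Factors in Argonaute-based small RNA production and activity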 (primary screen)", "cells": "Drosophila S2-derived reporter cells", "reagent": "long dsRNA against Drosophila genes, about 150-250 ng dsRNA per well (siRNA assay); about 80-120 ng (miRNA assay)", "timing": "about 5 days (siRNA assay); about 4 days (miRNA assay)", "challenge": "copper sulfate induction of reporters: 25 µM (siRNA assay); 200 mM stated (miRNA assay), 1-2 days before reading", "measurement": "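Per-well ratio of Renilla over firefly light, expressed relative to that plate's average ratio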", "hit rule": "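a well was a first-pass pick when its plate-scaled ratio rose above 1.5 (siRNA assay) or 1.6 (miRNA assay), or dropped below 0.6; a gene counted only if two separate dsRNAs agreed on retest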", "note": "The screen tested about 23,000 reagents; below is a random part of those that have a named target and a result. Over the whole deposit, 199 (0.86%) got an active call. 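Plate-scaled ratios behind the calls are not deposited; printed light signals are raw; many rows marked increased or decreased are still called inactive.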 Not given: the direction of the score."}
{"target": "Mvd (GeneID 32520)", "amplicon": "DRSC20096", "stable assay Renilla, run 1 (luminescence)": 6823, "stable assay firefly, run 1 (luminescence)": 3.01e5, "outcome": "inactive"}
{"target": "CG3335 (GeneID 39119)", "amplicon": "DRSC10358", "stable assay Renilla, run 1 (luminescence)": 4967, "stable assay firefly, run 1 (luminescence)": 2.73e5, "outcome": "inactive"}
{"target": "GABA-B-R1 (GeneID 34878)", "amplicon": "DRSC22038", "stable assay Renilla, run 1 (luminescence)": 9441, "stable assay firefly, run 1 (luminescence)": 6.57e5, "outcome": "inactive"}
{"target": "CG5623 (GeneID 41904)", "amplicon": "DRSC15848", "stable assay Renilla, run 1 (luminescence)": 6935, "stable assay firefly, run 1 (luminescence)": 4.85e5, "outcome": "inactive"}
{"target": "chico (GeneID 64880)", "amplicon": "DRSC03531", "stable assay Renilla, run 1 (luminescence)": 29098, "stable assay firefly, run 1 (luminescence)": 4.65e5, "outcome": "inactive"}
{"target": "TwdlK (GeneID 43205)", "amplicon": "DRSC16045", "stable assay Renilla, run 1 (luminescence)": 4980, "stable assay firefly, run 1 (luminescence)": 3.62e5, "outcome": "inactive"}
{"target": "CG17234 (GeneID 59225)", "amplicon": "DRSC00490", "stable assay Renilla, run 1 (luminescence)": 8384, "stable assay firefly, run 1 (luminescence)": 3.44e5, "outcome": "inactive"}
{"target": "chm (GeneID 43928)", "amplicon": "DRSC03341", "stable assay Renilla, run 1 (luminescence)": 66433, "stable assay firefly, run 1 (luminescence)": 3.40e5, "outcome": "inactive"}
{"target": "CG32022 (GeneID 317826)", "amplicon": "DRSC09678", "stable assay Renilla, run 1 (luminescence)": 6070, "stable assay firefly, run 1 (luminescence)": 3.47e5, "outcome": "inactive"}
{"target": "GCC185 (GeneID 41459)", "amplicon": "DRSC15493", "miRNA reporter change": "reporter ratio lowered past the hit cutoff", "stable assay Renilla, run 1 (luminescence)": 6471, "stable assay firefly, run 1 (luminescence)": 4.67e5, "outcome": "active"}
{"target": "Or83c (GeneID 40744)", "amplicon": "DRSC12359", "stable assay Renilla, run 1 (luminescence)": 7715, "stable assay firefly, run 1 (luminescence)": 3.94e5, "outcome": "inactive"}
{"target": "Nup75 (GeneID 37078)", "amplicon": "DRSC06947", "stable siRNA reporter change": "reporter ratio raised past the hit cutoff", "stable assay Renilla, run 1 (luminescence)": 17931, "stable assay firefly, run 1 (luminescence)": 3.77e5, "outcome": "inactive"}
{"target": "del (GeneID 35380)", "amplicon": "DRSC03170", "stable assay Renilla, run 1 (luminescence)": 6898, "stable assay firefly, run 1 (luminescence)": 7.23e5, "outcome": "inactive"}
{"target": "CG9775 (GeneID 40576)", "amplicon": "DRSC12330", "stable assay Renilla, run 1 (luminescence)": 9180, "stable assay firefly, run 1 (luminescence)": 4.61e5, "outcome": "inactive"}
{"target": "CG9775 (GeneID 40576)", "amplicon": "DRSC22667", "stable assay Renilla, run 1 (luminescence)": 3807, "stable assay firefly, run 1 (luminescence)": 3.90e5, "outcome": "inactive"}
{"target": "CG7218 (GeneID 42165)", "amplicon": "DRSC16216", "stable assay Renilla, run 1 (luminescence)": 9685, "stable assay firefly, run 1 (luminescence)": 4.69e5, "outcome": "inactive"}
{"target": "kar (GeneID 45883)", "amplicon": "DRSC14496", "stable assay Renilla, run 1 (luminescence)": 7911, "stable assay firefly, run 1 (luminescence)": 3.60e5, "outcome": "inactive"}
{"target": "CG33301 (GeneID 2768917)", "amplicon": "DRSC02778", "stable assay Renilla, run 1 (luminescence)": 7142, "stable assay firefly, run 1 (luminescence)": 3.98e5, "outcome": "inactive"}
{"target": "CG7362 (GeneID 41787)", "amplicon": "DRSC16236", "stable assay Renilla, run 1 (luminescence)": 4135, "stable assay firefly, run 1 (luminescence)": 4.73e5, "outcome": "inactive"}
{"target": "CG15530 (GeneID 43589)", "amplicon": "DRSC15067", "stable assay Renilla, run 1 (luminescence)": 6211, "stable assay firefly, run 1 (luminescence)": 4.44e5, "outcome": "inactive"}
{"target": "Syt14 (GeneID 40544)", "amplicon": "DRSC12331", "stable assay Renilla, run 1 (luminescence)": 7379, "stable assay firefly, run 1 (luminescence)": 3.79e5, "outcome": "inactive"}
{"target": "CG2310 (GeneID 43473)", "amplicon": "DRSC15438", "stable assay Renilla, run 1 (luminescence)": 7148, "stable assay firefly, run 1 (luminescence)": 5.42e5, "outcome": "inactive"}
{"target": "CG31955 (GeneID 319045)", "amplicon": "DRSC00285", "stable siRNA reporter change": "reporter ratio lowered past the hit cutoff", "stable assay Renilla, run 1 (luminescence)": 3591, "stable assay firefly, run 1 (luminescence)": 4.28e5, "outcome": "inactive"}
{"target": "whe (GeneID 33121)", "amplicon": "DRSC20537", "stable assay Renilla, run 1 (luminescence)": 6027, "stable assay firefly, run 1 (luminescence)": 4.42e5, "outcome": "inactive"}
{"target": "CtsB (GeneID 32341)", "amplicon": "DRSC19361", "stable assay Renilla, run 1 (luminescence)": 8494, "stable assay firefly, run 1 (luminescence)": 5.02e5, "outcome": "inactive"}
{"target": "Ptp36E (GeneID 35091)", "amplicon": "DRSC03021", "stable assay Renilla, run 1 (luminescence)": 7482, "stable assay firefly, run 1 (luminescence)": 5.04e5, "outcome": "inactive"}
{"target": "Kap-alpha1 (GeneID 40160)", "amplicon": "DRSC11356", "stable assay Renilla, run 1 (luminescence)": 6456, "stable assay firefly, run 1 (luminescence)": 3.50e5, "outcome": "inactive"}
{"target": "bip1 (GeneID 38891)", "amplicon": "DRSC11327", "miRNA reporter change": "reporter ratio raised past the hit cutoff", "stable assay Renilla, run 1 (luminescence)": 8171, "stable assay firefly, run 1 (luminescence)": 3.97e5, "outcome": "inactive"}
{"target": "CG8152 (GeneID 36696)", "amplicon": "DRSC07083", "stable assay Renilla, run 1 (luminescence)": 7064, "stable assay firefly, run 1 (luminescence)": 3.29e5, "outcome": "inactive"}
{"target": "CG11843 (GeneID 43432)", "amplicon": "DRSC14401", "stable assay Renilla, run 1 (luminescence)": 7371, "stable assay firefly, run 1 (luminescence)": 3.99e5, "outcome": "inactive"}
{"target": "CG32982 (GeneID 34237)", "amplicon": "DRSC01059", "stable assay Renilla, run 1 (luminescence)": 4624, "stable assay firefly, run 1 (luminescence)": 3.17e5, "outcome": "inactive"}
{"target": "CG32982 (GeneID 34237)", "amplicon": "DRSC02677", "stable assay Renilla, run 1 (luminescence)": 8498, "stable assay firefly, run 1 (luminescence)": 5.56e5, "outcome": "inactive"}
{"target": "CG32982 (GeneID 34237)", "amplicon": "DRSC03268", "stable assay Renilla, run 1 (luminescence)": 4580, "stable assay firefly, run 1 (luminescence)": 4.01e5, "outcome": "inactive"}
{"target": "CG32982 (GeneID 34237)", "amplicon": "DRSC03269", "stable assay Renilla, run 1 (luminescence)": 6807, "stable assay firefly, run 1 (luminescence)": 5.05e5, "outcome": "inactive"}
{"target": "CG32982 (GeneID 34237)", "amplicon": "DRSC21912", "stable assay Renilla, run 1 (luminescence)": 8493, "stable assay firefly, run 1 (luminescence)": 4.31e5, "outcome": "inactive"}

A stretch from the list above, as a working copy:
{"target": "CG11843 (GeneID 43432)", "amplicon": "DRSC14401", "stable assay Renilla, run 1 (luminescence)": 7371, "stable assay firefly, run 1 (luminescence)": 3.99e5, "outcome": "inactive"}
{"target": "CG32982 (GeneID 34237)", "amplicon": "DRSC01059", "stable assay Renilla, run 1 (luminescence)": 4624, "stable assay firefly, run 1 (luminescence)": 3.17e5, "outcome": "inactive"}
{"target": "CG32982 (GeneID 34237)", "amplicon": "DRSC02677", "stable assay Renilla, run 1 (luminescence)": 8498, "stable assay firefly, run 1 (luminescence)": 5.56e5, "outcome": "inactive"}
{"target": "CG32982 (GeneID 34237)", "amplicon": "DRSC03268", "stable assay Renilla, run 1 (luminescence)": 4580, "stable assay firefly, run 1 (luminescence)": 4.01e5, "outcome": "inactive"}
{"target": "CG32982 (GeneID 34237)", "amplicon": "DRSC03269", "stable assay Renilla, run 1 (luminescence)": 6807, "stable assay firefly, run 1 (luminescence)": 5.05e5, "outcome": "inactive"}
